Experimental data published in PubChem BioAssay AID2685 (National Center for Advancing Translational Sciences (NCATS), 2010).
Some of the results follow. The main result of the screen is listed elsewhere. These columns were measured beside it and carry no call. Most of these compounds were active or inconclusive in the main read-out, so they are no random draw. Potencies come from curve fits of mixed quality, noted in brackets.

Experiment: qHTS Assay for Lipid Storage Modulators in Drosophila S3 Cells;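 for cell number change: cells counted by Cell Tracker Red CMTPX staining in the red channel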
Details: BODIPY lipid droplet fluorescence, 18-24 h; for cell number change: measured here: cell count max response, cells fed with added oleic acid
Outline: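 Drosophila S3 cells loaded with oleic acid (400 uM, as added) and compounds at several concentrations; lipid droplets imaged by 488-nm laser-scanning cytometry, 500–530 nm intensity and object ratio to cell channel. Percent activity normalized to 20 uM Triacsin C.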

[1] = measured here: cell number channel AC50, cells fed with added oleic acid
[2] = measured here: lipid fluorescence (Fed channel) AC50, cells fed with added oleic acid

Row | Compound | cell number change [%] | AC50 [1] | AC50 [2]
1 | O=C(O)c1ccccc1-n1cccc1C(=O)O | -46.4 | 0.00461 µM [falling, full curve, poor fit] | 
2 | CCOC(=O)/C=C/C(=O)Nc1cc(S(=O)(=O)Nc2ccc(OC)cc2)ccc1N1CCOCC1 | 3.14 |  | 18.4 µM [falling, single point]
3 | Cc1ccc(NC(=O)C(C)N2C(=O)C3C4CC(C(Br)C4Br)C3C2=O)cc1 (stereo not drawn) | -1.63 |  | 4.61 µM [falling, single point]
4 | O=C(/C=C/c1ccc(F)cc1)NC(=S)Nc1ccccc1 | 55.3 | 0.58 µM [rising, full curve, poor fit] | 23.1 µM [rising, partial curve, poor fit]
5 | CCOC(=O)C1CCN(Cc2cnc(Oc3ccc(Cl)cc3C)s2)CC1 | -0.287 |  | 6.51 µM [falling, single point]
6 | COc1ccc([N+](=O)[O-])cc1NC(=O)Nc1ccccc1 | 2.44 |  | 20.6 µM [rising, single point]
7 | O=S1(=O)CCN2N=C(C34CC5CC(CC(C5)C3)C4)SC2=N1 | 28.9 |  | 29.1 µM [rising, partial curve, poor fit]
8 | CC(=O)c1cccc(NC(=O)NCc2cccs2)c1 | 30.1 | 25.9 µM [rising, single point] | 25.9 µM [rising, partial curve, poor fit]
9 | Cc1occc1C(=O)Nc1cccc(C(=O)NCc2ccccc2)c1 |  | 2.31 µM [rising, partial curve] | 
10 | CC1(C)CC(NC(=O)c2c(N)no[n+]2[O-])CC(C)(C)N1 | -49.3 | 20.6 µM [falling, single point] | 18.4 µM [falling, single point]
11 | O=C(CCNS(=O)(=O)c1ccccc1)N1CCN(c2ccccc2)CC1 | 36.6 | 32.6 µM [rising, partial curve, poor fit] | 32.6 µM [rising, single point]
12 | OC(c1ccccc1)c1nccn1Cc1ccccc1 (stereo not drawn) | -176 |  | 29.1 µM [falling, single point]
13 | COC(=O)c1c(NC(=O)c2ccc(Br)s2)sc2c1CCC2 | 0.647 |  | 0.517 µM [rising, partial curve]
14 | CCN(C(=O)COC(=O)COc1ccc2c(C)cc(=O)oc2c1)C1CCS(=O)(=O)C1 (stereo not drawn) |  |  | 29.1 µM [falling, single point]
15 | COc1cccc(NC(=O)CCc2nnc3ccc(NCc4ccco4)nn23)c1 | -9.48 |  | 18.4 µM [falling, partial curve, poor fit]
16 | CCCCN(C(=O)c1cc2ccccc2o1)c1c(N)n(CCCC)c(=O)[nH]c1=O | 5.06 |  | 
17 | O=C(NC(=S)Nc1ccc(S(=O)(=O)N2CCOCC2)cc1)c1ccccc1[N+](=O)[O-] | 118 | 29.1 µM [rising, single point] | 29.1 µM [rising, partial curve]
18 | CN1CCN(c2ccc(NC(=O)c3ccc(Oc4ccccc4)cc3)cc2)CC1 | 0.952 |  | 
19 | Cc1ccc(S(=O)(=O)N(C)c2ccc(C(=O)Nc3ccccc3C(=O)N3CCOCC3)cc2)cc1 | -1.62 |  | 29.1 µM [rising, partial curve]
20 | COC(=O)c1cc(C)sc1NC(=O)C1CC=CCC1C(=O)O (stereo not drawn) | 60 | 14.6 µM [rising, single point] | 0.058 µM [falling, full curve, poor fit]

Row | Compound | cell number change [%] | AC50 [1] | AC50 [2]
21 | COc1cccc(C(=O)Nc2ccc3c(c2)C(=O)c2ccccc2C3=O)c1 | -29 |  | 10.3 µM [falling, partial curve, poor fit]
22 | Cc1cccc(OCC(O)CN2CCN(CCN3C(=O)c4cccc5cccc(c45)C3=O)CC2)c1C (stereo not drawn) | -43.7 |  | 
23 | CC1CCN(S(=O)(=O)c2cc(Cl)ccc2Br)CC1 | 0.86 |  | 
24 | NC(=O)CC(NC(=O)c1ccccc1)c1ccc(N2CCN(c3ccccc3)CC2)c([N+](=O)[O-])c1 (stereo not drawn) | -15.2 |  | 
25 | Cc1cccc2c(=O)cc(C)n(CC(=O)N3CCOCC3)c12 |  | 1.46 µM [rising, single point] | 5.8 µM [rising, single point]
26 | O=C(CCc1nc2ccccc2c(=O)[nH]1)OCc1nnc(-c2ccccc2)o1 | 3.97 |  | 18.4 µM [rising, partial curve, poor fit]
27 | CC1C(=O)Nc2ccccc2N1C(=O)c1ccc(F)cc1 (stereo not drawn) | 20.4 |  | 0.116 µM [rising, full curve, poor fit]
28 | O=C(COC(=O)c1ccc(F)c(S(=O)(=O)N2CCOCC2)c1)c1ccc(Br)cc1 | -10.3 |  | 
29 | CCC(C(=O)c1ccc2ncccc2c1)c1ccccc1 (stereo not drawn) | 0.481 |  | 5.8 µM [falling, partial curve]
30 | O=C(CC1SC(=Nc2ccccc2)N(Cc2ccccn2)C1=O)Nc1ccc(Br)cc1 (stereo not drawn) | -2.15 |  | 18.4 µM [falling, single point]
31 | COc1ccc(C(CNC(=O)Cc2cccs2)N(C)C)cc1 (stereo not drawn) | 3.33 |  | 
32 | CCCN(CCC)CCCOC(=O)c1ccc(Cl)cc1Cl | -30.3 |  | 
33 | COc1cccc(CN2C(=O)CCC2(C)C(=O)NCCc2ccc(OC)c(OC)c2)c1 (stereo not drawn) | 25.2 |  | 
34 | CN(C)S(=O)(=O)c1cccc(NC(=O)c2cc3ccccc3o2)c1 |  |  | 0.461 µM [rising, full curve]
35 | CNC(=O)c1nnsc1S(=O)(=O)c1ccc(Cl)cc1 | -48.2 | 5.8 µM [falling, full curve] | 
36 | Cc1ccccc1NC(=O)CSc1nc2[nH]c(=O)cc(O)c2s1 | 122 |  | 29.1 µM [rising, single point]
37 | Cc1ccc(NS(=O)(=O)c2ccc3[nH]c(=O)c(=O)[nH]c3c2)cc1Cl | 4.37 |  | 14.6 µM [falling, partial curve]
38 | COC(=O)/C(=N\Nc1ccc(Cl)cc1)Sc1nnc(-c2ccc(OC)cc2)n1C | 74.6 | 9.2 µM [rising, partial curve] | 2.06 µM [rising, full curve, poor fit]
39 | COc1cccc(Nc2nc3ccc(C(=O)c4ccccc4)cc3n3cnnc23)c1 | -12.6 |  | 29.1 µM [falling, single point]
